This is one part of the list.
How the values were obtained:
Experiment in all cases: log2 fold change, soluble protein after heating vs DMSO (PISA); higher = thermal stabilisation; K562 lysate, 10 uM; active = over 0.2 and 3.5 SD of the protein, either way, in both replicates (recomputed)
[1] = compound: C1=CC=C(C=C1)[C@H](COC2=CC3=C(C=C2)NC(=O)N3)NC(=O)C4=CC=CN(C4=O)CC5=CC(=C(C=C5)F)F
Method in brief: (§1)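 Values give the log-two fold change in thermal stability against solvent controls, from duplicates. Crude K562 extract at 1 mg/mL protein, made by dounce homogenisation in PBS pH 7.4 with 1 mM MgCl2, was treated with 10 μM compound for 30 min. After 3 min heating across 48°C-58°C, aliquots were pooled, adjusted to 0.5% NP-40 at 4°C and centrifuged at 21,000xg for 90 min. The supernatant was measured by TMTpro 16plex LC-MS/MS with channel sums equalised.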

Amino acid sequences for entries named in this document (tags omitted). A change or cut given only in a name is not applied to a line headed by its entry.
UniProt Q9UGR2: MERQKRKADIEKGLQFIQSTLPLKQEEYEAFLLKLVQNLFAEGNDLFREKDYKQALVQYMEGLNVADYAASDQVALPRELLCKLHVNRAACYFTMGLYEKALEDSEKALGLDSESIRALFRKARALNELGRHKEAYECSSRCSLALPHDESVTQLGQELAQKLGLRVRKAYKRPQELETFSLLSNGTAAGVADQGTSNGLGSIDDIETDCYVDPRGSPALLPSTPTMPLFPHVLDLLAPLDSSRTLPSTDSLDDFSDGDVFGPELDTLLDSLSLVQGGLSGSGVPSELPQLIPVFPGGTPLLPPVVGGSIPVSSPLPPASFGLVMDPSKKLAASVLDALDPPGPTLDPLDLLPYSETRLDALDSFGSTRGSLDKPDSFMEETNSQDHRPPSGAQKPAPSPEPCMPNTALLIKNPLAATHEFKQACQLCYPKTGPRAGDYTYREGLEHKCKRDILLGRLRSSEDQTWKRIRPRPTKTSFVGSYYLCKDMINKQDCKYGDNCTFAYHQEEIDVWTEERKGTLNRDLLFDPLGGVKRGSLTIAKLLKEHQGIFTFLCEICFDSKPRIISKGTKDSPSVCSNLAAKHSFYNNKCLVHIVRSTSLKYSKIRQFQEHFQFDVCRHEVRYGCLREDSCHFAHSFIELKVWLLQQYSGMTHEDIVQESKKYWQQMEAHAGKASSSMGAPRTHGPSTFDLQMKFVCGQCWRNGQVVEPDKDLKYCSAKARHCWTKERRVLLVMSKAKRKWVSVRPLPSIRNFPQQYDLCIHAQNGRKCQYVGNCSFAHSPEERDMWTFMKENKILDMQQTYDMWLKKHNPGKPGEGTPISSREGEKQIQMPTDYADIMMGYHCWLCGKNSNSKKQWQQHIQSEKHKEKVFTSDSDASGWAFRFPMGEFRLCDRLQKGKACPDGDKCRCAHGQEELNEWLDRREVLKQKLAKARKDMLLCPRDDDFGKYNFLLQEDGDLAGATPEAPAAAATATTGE
UniProt Q13426: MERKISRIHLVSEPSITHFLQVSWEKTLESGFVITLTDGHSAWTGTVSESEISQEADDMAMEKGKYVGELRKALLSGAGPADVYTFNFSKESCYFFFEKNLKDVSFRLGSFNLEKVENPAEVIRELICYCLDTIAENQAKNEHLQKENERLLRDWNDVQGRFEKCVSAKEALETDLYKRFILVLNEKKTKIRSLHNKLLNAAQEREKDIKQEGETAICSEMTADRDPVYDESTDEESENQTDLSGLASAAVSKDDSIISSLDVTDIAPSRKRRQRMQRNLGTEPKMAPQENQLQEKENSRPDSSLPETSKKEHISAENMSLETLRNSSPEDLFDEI
UniProt O96006: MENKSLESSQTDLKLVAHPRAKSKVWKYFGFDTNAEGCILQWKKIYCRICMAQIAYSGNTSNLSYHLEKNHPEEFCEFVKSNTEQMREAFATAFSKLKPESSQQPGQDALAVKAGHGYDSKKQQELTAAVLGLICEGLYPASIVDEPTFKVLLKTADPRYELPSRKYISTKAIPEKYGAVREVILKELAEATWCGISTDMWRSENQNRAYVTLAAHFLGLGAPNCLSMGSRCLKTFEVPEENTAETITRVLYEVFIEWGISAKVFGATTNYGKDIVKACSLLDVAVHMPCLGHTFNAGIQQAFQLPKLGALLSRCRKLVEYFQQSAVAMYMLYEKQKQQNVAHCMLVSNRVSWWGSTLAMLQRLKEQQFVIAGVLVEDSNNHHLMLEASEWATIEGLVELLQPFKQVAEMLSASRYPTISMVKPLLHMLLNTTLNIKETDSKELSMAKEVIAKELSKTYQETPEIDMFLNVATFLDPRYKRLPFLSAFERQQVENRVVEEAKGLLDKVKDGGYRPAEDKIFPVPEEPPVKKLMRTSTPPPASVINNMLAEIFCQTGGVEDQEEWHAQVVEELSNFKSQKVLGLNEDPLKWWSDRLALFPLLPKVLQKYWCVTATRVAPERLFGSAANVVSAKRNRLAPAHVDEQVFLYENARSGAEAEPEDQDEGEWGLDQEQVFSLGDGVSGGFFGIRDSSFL
UniProt A8MPS7: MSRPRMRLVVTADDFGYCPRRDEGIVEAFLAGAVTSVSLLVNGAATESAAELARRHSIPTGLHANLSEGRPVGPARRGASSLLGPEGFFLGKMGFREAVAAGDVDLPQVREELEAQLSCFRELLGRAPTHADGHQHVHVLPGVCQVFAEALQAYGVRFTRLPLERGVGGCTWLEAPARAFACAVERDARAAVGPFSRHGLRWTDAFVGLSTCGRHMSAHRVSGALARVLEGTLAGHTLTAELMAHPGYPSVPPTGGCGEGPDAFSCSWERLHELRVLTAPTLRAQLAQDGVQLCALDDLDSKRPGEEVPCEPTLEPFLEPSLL
UniProt Q9C0B5: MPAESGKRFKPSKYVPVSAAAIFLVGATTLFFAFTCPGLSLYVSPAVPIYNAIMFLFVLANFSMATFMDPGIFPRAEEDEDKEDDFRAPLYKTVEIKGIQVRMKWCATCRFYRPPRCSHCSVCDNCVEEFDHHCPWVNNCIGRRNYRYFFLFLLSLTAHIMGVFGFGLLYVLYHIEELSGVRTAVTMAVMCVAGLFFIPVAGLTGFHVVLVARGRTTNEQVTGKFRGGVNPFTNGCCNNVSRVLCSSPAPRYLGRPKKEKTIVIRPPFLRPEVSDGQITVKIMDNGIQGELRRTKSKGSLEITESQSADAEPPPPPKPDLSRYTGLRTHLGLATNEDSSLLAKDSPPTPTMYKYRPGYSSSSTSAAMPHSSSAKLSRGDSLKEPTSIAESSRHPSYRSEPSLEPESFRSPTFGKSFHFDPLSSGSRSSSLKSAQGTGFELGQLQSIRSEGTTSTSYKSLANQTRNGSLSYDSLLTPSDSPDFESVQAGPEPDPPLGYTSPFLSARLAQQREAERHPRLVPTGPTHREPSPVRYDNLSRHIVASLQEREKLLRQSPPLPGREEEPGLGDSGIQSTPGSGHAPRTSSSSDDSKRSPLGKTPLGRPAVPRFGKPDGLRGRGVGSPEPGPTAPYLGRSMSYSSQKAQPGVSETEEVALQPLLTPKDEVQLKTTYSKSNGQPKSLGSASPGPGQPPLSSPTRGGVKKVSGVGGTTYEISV
UniProt Q8N5A5: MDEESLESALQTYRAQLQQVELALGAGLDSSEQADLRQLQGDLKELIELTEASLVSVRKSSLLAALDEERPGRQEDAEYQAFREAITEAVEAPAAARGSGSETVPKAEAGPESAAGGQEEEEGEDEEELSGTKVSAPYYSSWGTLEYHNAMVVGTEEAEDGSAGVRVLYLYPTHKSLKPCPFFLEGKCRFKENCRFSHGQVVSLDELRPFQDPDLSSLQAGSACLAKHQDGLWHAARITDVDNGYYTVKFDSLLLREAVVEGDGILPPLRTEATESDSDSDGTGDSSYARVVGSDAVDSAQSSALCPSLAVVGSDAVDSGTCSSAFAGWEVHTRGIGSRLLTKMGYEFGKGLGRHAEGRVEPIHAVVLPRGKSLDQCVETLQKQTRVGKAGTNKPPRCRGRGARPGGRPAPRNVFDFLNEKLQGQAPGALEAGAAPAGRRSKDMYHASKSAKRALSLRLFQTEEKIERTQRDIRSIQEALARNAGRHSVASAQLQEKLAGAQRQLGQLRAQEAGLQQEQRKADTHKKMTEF
UniProt P25490, whole entry, looked up: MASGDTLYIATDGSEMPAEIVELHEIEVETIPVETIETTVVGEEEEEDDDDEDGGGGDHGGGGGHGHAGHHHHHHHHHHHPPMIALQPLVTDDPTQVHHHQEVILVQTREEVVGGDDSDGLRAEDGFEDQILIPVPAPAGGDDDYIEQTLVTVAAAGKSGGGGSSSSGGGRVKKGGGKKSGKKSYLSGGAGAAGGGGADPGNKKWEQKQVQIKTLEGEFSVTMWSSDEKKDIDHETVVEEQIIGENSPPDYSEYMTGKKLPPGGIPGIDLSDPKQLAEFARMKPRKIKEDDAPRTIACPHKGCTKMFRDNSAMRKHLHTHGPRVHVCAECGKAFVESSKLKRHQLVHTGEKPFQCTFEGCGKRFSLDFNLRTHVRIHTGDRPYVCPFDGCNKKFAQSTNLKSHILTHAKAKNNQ
UniProt P16989, whole entry, looked up: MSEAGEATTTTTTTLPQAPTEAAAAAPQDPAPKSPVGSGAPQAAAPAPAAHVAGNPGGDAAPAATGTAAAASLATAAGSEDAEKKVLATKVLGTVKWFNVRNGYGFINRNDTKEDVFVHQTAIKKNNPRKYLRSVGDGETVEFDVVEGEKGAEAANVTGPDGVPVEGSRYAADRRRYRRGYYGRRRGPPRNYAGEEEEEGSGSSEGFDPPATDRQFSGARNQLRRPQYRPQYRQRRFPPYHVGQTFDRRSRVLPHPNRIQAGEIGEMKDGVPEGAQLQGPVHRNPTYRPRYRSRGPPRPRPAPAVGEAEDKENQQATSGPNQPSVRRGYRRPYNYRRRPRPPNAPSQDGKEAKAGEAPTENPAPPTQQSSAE
UniProt Q96DT7: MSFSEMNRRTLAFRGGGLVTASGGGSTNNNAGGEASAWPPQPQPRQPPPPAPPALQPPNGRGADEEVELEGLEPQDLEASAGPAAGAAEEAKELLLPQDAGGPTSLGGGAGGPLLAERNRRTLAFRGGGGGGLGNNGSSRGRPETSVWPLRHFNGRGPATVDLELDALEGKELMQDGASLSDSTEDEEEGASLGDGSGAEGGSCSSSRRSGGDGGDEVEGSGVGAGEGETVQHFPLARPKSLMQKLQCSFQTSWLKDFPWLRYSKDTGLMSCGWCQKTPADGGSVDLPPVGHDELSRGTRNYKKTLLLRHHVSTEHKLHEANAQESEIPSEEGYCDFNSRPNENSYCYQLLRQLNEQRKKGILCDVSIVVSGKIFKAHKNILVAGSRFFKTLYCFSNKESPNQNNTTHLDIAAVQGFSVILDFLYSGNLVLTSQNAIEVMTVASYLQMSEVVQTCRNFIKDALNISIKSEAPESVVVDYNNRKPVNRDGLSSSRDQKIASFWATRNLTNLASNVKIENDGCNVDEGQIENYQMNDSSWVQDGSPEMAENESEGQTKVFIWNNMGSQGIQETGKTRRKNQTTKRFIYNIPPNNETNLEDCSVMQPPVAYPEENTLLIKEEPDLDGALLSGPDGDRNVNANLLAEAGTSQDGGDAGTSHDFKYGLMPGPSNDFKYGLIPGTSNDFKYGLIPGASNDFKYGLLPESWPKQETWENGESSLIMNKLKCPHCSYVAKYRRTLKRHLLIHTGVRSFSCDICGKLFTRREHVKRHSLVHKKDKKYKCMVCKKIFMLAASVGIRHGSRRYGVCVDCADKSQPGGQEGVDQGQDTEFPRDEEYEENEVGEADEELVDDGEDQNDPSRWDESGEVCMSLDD
UniProt P18887, whole entry, looked up: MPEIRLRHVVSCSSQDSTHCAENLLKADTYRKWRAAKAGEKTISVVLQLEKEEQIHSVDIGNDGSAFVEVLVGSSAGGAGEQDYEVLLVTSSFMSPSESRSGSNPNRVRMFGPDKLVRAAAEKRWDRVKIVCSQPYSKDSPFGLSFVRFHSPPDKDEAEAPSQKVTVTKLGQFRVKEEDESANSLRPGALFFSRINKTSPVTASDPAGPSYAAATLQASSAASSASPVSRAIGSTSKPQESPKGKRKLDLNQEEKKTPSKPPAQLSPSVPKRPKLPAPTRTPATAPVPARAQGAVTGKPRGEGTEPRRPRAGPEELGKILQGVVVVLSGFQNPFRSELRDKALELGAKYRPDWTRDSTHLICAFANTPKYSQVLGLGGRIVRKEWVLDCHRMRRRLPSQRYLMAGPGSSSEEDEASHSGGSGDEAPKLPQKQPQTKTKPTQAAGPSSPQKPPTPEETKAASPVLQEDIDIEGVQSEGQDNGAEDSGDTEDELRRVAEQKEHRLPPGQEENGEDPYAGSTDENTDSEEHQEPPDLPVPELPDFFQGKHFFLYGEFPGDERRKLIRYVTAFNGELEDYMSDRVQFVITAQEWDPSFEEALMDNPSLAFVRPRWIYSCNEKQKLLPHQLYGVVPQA
UniProt Q8IY57: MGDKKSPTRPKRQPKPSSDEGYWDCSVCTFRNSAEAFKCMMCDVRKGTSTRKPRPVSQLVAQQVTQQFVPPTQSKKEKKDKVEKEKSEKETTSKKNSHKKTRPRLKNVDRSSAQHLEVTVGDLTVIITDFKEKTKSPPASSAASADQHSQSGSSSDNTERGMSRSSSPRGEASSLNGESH
UniProt Q9Y2Z4: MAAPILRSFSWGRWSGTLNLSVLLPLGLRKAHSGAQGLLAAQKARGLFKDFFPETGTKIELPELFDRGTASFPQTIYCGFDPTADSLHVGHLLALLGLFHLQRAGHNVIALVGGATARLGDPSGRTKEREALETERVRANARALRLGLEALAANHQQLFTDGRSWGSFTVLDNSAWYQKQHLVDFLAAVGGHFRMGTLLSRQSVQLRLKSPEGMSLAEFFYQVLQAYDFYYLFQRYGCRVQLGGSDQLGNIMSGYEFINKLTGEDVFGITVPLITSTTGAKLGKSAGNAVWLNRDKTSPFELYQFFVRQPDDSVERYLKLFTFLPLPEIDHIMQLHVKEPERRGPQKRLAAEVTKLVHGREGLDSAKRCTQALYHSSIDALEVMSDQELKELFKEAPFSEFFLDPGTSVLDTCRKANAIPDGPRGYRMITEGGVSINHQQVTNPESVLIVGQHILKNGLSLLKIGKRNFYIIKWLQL

[2] = compound: CC1=C(SC2=C1C(=N[C@H](C3=NN=C(N32)C)CC(=O)N)C4=CC=C(C=C4)Cl)C
Method in brief: as §1

[3] = compound: CC1=C2C(=CC=C1)N=C(N(C2=O)C3=CC=CC=C3C)CN4C=NC5=C(N=CN=C54)N
Method in brief: as §1

[4] = compound: Cc1sc2c(c1C)C(c1ccc(Cl)cc1)=N[C@@H](CC(=O)OC(C)(C)C)c1nnc(C)n1-2
Method in brief: as §1

[5] = compound: c1ccc([C@@H]2C[C@H]2NC2CCNCC2)cc1
Method in brief: as §1

Measured: log2 fold change

ZC3H7B (UniProt Q9UGR2)
inactive: [1] 0.063 | [2] -0.056 | [3] -0.084 | [4] 0.011 | [5] 0.043

ZC3H11A (UniProt O75152)
inactive: [1] -0.015 | [2] 0 | [3] 0.081 | [4] 0.023 | [5] 0.063

ZC3H13 (UniProt Q5T200)
inactive: [1] -0.005 | [2] -0.039 | [3] 0.013 | [4] -0.061 | [5] 0.136

XRCC4 (UniProt Q13426)
inactive: [1] 0.021 | [2] -0.024 | [3] 0 | [4] 0.021 | [5] -0.045

ZBED1 (UniProt O96006)
inactive: [1] 0.081 | [2] 0.008 | [3] -0.005 | [4] -0.035 | [5] 0.046

ZFPM2 (UniProt Q8WW38)
inactive: [1] 0.116 | [2] 0.246 | [3] -0.042 | [4] 0.062 | [5] 0.055

YDJC (UniProt A8MPS7)
inactive: [1] 0.001 | [2] -0.012 | [3] -0.003 | [4] 0.012 | [5] 0.018

ZFYVE9 (UniProt O95405)
inactive: [1] 0.034 | [2] 0.039 | [3] -0.002 | [4] -0.032 | [5] 0.008

ZC3HAV1 (UniProt Q7Z2W4)
inactive: [1] 0.024 | [2] -0.021 | [3] 0.027 | [4] -0.01 | [5] -0.001

ZDHHC5 (UniProt Q9C0B5)
inactive: [1] -0.015 | [2] 0.023 | [3] -0.004 | [4] -0.032 | [5] -0.023

ZGPAT (UniProt Q8N5A5)
inactive: [1] 0.044 | [2] -0.03 | [3] 0.114 | [4] 0.091 | [5] 0.033

XPO5 (UniProt Q9HAV4)
inactive: [1] -0.046 | [2] -0.021 | [3] 0.002 | [4] -0.021 | [5] 0.032

ZBTB7B isoform 2 (UniProt O15156)
inactive: [1] -0.019 | [2] 0.08 | [4] -0.011

ZBTB17 isoform 2 (UniProt Q13105)
inactive: [1] -0.075 | [2] 0.084 | [4] -0.036

ZBTB2 (UniProt Q8N680)
inactive: [1] 0.117 | [2] 0.054 | [3] -0.002 | [4] 0.038 | [5] 0.021

ZC3H18 (UniProt E7ERS3)
inactive: [1] 0.01 | [2] -0.005 | [3] -0.001 | [4] 0.002 | [5] -0.064

YRDC (UniProt Q86U90)
inactive: [1] -0.009 | [2] 0.02 | [3] -0.046 | [4] -0.029 | [5] -0.053

YY1 (UniProt P25490)
inactive: [1] -0.002 | [2] -0.009 | [3] 0.008 | [4] 0.016 | [5] 0.046

YBX3 (UniProt P16989)
inactive: [1] 0.085 | [2] -0.006 | [3] -0.015 | [4] -0.034 | [5] -0.02

XRCC6 (UniProt P12956)
inactive: [1] -0.013 | [2] 0.015 | [3] 0.009 | [4] 0.01 | [5] 0.014

Seven neighbouring entries from above, for reference:
ZGPAT (UniProt Q8N5A5)
inactive: [1] 0.044 | [2] -0.03 | [3] 0.114 | [4] 0.091 | [5] 0.033

XPO5 (UniProt Q9HAV4)
inactive: [1] -0.046 | [2] -0.021 | [3] 0.002 | [4] -0.021 | [5] 0.032

ZBTB7B isoform 2 (UniProt O15156)
inactive: [1] -0.019 | [2] 0.08 | [4] -0.011

ZBTB17 isoform 2 (UniProt Q13105)
inactive: [1] -0.075 | [2] 0.084 | [4] -0.036

ZBTB2 (UniProt Q8N680)
inactive: [1] 0.117 | [2] 0.054 | [3] -0.002 | [4] 0.038 | [5] 0.021

ZC3H18 (UniProt E7ERS3)
inactive: [1] 0.01 | [2] -0.005 | [3] -0.001 | [4] 0.002 | [5] -0.064

YRDC (UniProt Q86U90)
inactive: [1] -0.009 | [2] 0.02 | [3] -0.046 | [4] -0.029 | [5] -0.053

Carrying on.

ZBTB10 (UniProt Q96DT7)
inactive: [1] 0 | [2] -0.037 | [3] 0.114 | [4] -0.091 | [5] 0.084

XRCC1 (UniProt P18887)
inactive: [1] 0.039 | [2] -0.013 | [3] 0.002 | [4] 0.029 | [5] 0.081

YARS (UniProt P54577)
inactive: [1] -0.029 | [2] 0.009 | [3] -0.005 | [4] 0.013 | [5] 0.052

YAF2 isoform 5 (UniProt Q8IY57)
inactive: [1] 0.108 | [2] -0.086 | [3] -0.238 | [4] 0.054 | [5] 0.033

YARS2 (UniProt Q9Y2Z4)
inactive: [1] 0.038 | [2] -0.025 | [3] 0.046 | [4] -0.016 | [5] 0.016
